Among the data in publication PMC11324303 are binding values, retold here.

By UniProt entry, the sequences of proteins in these tests, tags left out. Residues count along the entry.
UniProt O14786, residues 22-923: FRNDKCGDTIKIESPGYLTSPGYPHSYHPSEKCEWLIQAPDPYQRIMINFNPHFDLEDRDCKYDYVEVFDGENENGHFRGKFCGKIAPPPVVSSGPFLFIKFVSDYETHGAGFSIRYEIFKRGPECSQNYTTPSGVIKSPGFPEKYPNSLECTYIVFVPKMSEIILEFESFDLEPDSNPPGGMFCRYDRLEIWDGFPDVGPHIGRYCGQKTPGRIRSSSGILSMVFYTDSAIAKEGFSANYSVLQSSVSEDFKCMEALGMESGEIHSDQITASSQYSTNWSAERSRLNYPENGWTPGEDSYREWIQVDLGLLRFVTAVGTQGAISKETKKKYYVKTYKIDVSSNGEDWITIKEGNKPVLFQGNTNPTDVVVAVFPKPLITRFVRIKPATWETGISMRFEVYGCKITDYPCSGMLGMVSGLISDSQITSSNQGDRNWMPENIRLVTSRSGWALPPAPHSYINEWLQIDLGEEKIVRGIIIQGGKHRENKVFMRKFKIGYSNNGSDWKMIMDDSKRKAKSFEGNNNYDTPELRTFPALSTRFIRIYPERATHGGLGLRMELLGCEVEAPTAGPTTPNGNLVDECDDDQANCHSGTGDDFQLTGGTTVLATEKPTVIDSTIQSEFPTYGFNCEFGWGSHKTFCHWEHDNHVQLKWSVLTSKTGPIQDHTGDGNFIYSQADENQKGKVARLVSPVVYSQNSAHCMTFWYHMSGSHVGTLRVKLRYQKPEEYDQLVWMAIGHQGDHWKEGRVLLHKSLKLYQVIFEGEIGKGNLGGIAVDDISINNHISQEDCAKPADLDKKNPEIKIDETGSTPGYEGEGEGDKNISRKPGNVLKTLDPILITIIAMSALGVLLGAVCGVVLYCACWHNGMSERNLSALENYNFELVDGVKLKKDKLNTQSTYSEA

The target in test [1] is T1, SLC44A2 (mouse) (mouse (endogenous in aorta)) (UniProt Q8BY89).
T1 sequence: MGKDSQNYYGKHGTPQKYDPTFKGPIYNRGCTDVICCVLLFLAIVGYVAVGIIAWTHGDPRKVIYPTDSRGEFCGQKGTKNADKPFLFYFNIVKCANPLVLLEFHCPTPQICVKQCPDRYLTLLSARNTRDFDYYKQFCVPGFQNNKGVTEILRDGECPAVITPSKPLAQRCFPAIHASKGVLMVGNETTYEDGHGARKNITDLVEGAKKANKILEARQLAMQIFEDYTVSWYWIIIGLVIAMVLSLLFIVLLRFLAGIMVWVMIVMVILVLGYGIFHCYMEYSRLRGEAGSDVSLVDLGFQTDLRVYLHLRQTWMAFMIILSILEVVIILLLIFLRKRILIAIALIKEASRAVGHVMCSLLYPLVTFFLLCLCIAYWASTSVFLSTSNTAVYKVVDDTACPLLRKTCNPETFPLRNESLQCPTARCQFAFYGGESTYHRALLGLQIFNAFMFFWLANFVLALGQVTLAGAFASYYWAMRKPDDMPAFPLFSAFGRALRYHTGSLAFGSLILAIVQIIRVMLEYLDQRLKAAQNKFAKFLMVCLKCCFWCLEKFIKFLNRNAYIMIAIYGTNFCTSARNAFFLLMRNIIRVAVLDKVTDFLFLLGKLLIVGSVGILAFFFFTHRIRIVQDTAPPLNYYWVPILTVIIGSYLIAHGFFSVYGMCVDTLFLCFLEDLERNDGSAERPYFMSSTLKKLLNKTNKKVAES
The test is described as follows: proximity ligation; Duolink PLA on fixed, permeabilised suprarenal abdominal aortic cryosections of mice infused with saline or Ang II (Apoe-/-, Lenti-Slc44a2, Slc44a2 WT or SMKO, with or without LEN).

For test [2], the target named is T2, SLC44A2 (human (endogenous in HASMCs)) (UniProt Q8IWA5).
T2 sequence: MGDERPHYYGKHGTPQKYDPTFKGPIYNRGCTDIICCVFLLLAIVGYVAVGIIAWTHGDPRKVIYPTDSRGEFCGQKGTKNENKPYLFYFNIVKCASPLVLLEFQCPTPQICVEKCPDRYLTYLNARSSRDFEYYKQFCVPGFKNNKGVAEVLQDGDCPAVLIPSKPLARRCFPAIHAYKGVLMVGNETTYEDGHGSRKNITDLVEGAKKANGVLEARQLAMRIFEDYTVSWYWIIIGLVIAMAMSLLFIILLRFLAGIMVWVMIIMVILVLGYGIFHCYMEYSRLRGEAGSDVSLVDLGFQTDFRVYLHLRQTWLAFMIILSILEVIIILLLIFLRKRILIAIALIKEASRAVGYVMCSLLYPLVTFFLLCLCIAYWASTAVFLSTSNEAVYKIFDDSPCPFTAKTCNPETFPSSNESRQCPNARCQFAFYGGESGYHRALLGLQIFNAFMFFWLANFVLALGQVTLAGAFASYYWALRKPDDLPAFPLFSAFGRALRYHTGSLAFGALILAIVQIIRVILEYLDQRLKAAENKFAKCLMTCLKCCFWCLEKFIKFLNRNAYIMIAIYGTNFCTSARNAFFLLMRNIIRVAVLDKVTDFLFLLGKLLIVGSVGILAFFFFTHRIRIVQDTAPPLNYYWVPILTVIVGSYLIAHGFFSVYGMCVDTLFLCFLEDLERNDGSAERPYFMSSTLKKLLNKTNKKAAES
Description: co-IP; HASMC lysates, cells treated with Ang II (1 μM); IP anti-SLC44A2, blot anti-NRP1 (Figure 5B); IP anti-NRP1, blot anti-SLC44A2 (Figure 5C).

Test [3] addresses T1, SLC44A2 (mouse) (mouse (endogenous in aorta)). Description: proximity ligation; Duolink PLA on fixed, permeabilised suprarenal abdominal aortic cryosections of mice infused with saline or Ang II (Apoe-/-, Lenti-Slc44a2, Slc44a2 WT or SMKO, with or without LEN). This is another data set of the same source.

Like-named read-outs stand apart in the source and are kept apart here. No constants are given. Whether binding was seen depends on the method and setting. Binding seen in cells or lysates may run through a third protein. Some binding calls cover weakened binding; strength is not graded here.

“NRP1 (mouse) (from UniProt P97333 22-923) (receptor)”: the binding entry in test [1] was “binds”.
For the molecule “neuropilin-1 (NRP1) (from UniProt O14786 22-923) (receptor)”, the binding result in test [2] is listed as “binds”.

B1: ITGB3 (mouse) (receptor, UniProt O54890 26-787)
chain: ESNICTTRGVNSCQQCLAVSPVCAWCSDETLSQGSPRCNLKENLLKDNCAPESIEFPVSEAQILEARPLSSKGSGSSAQITQVSPQRIALRLRPDDSKIFSLQVRQVEDYPVDIYYLMDLSFSMKDDLSSIQTLGTKLASQMRKLTSNLRIGFGAFVDKPVSPYMYISPPQAIKNPCYNMKNACLPMFGYKHVLTLTDQVSRFNEEVKKQSVSRNRDAPEGGFDAIMQATVCDEKIGWRNDASHLLVFTTDAKTHIALDGRLAGIVLPNDGHCHIGTDNHYSASTTMDYPSLGLMTEKLSQKNINLIFAVTENVVSLYQNYSELIPGTTVGVLSDDSSNVLQLIVDAYGKIRSKVELEVRDLPEELSLSFNATCLNNEVIPGLKSCVGLKIGDTVSFSIEAKVRGCPQEKEQSFTIKPVGFKDSLTVQVTFDCDCACQAFAQPSSPRCNNGNGTFECGVCRCDQGWLGSMCECSEEDYRPSQQEECSPKEGQPICSQRGECLCGQCVCHSSDFGKITGKYCECDDFSCVRYKGEMCSGHGQCNCGDCVCDSDWTGYYCNCTTRTDTCMSTNGLLCSGRGNCECGSCVCVQPGSYGDTCEKCPTCPDACSFKKECVECKKFNRGTLHEENTCSRYCRDDIEQVKELTDTGKNAVNCTYKNEDDCVVRFQYYEDTSGRAVLYVVEEPECPKGPDILVVLLSVMGAILLIGLATLLIWKLLITIHDRKEFAKFEEERARAKWDTANNPLYKEATSTFTNITYRGT
On to B1, for which, in test [3], the binding entry is listed as “binds”.
